Values from PubChem BioAssay AID1671195 (Yale University, 2021)

- Aim: 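Knockdowns that increase or decrease uptake of fluorescent LDL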 (primary screen)
- Cells: human Huh7 hepatoma cells
- Knock-down reagent: siRNA pool against human genes, 18 nM
- Time to read-out: about 2 to 2.5 days of knockdown, then 8 h LDL uptake
- Conditions: DiI-labelled LDL at 30 µg/ml for 8 h, in lipoprotein-deficient serum medium
- Read-out: 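Fluorescent LDL signal imaged in cells, scaled to the plate median, robust z-score for each replicate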
- Reading the numbers: robust z-score: higher = more LDL uptake after knockdown
- Call rule: 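a gene counts as active if at least two replicate z-scores exceed ±2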
This is an unselected part of about 22,000 reagents tested. About 1,510 of all reagents (6.9%) count as active. 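Active includes knockdowns raising or lowering LDL uptake; positive z-scores mean more uptake, negative mean less.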

| gene knocked down | robust z-score, replicate 1 | robust z-score, replicate 2 | robust z-score, replicate 3 | activity call |
| --- | --- | --- | --- | --- |
| TIAM2 | 0.615 | -0.887 | -0.506 | inactive |
| SLC37A2 | -1.16 | -1.09 | -1.09 | inactive |
| LOC400988 (retired record) | -0.228 | -0.729 | -0.088 | inactive |
| IPO9 | -1.24 | 0.153 | -0.747 | inactive |
| SLC47A2 | 0.48 | 0.238 | 0.13 | inactive |
| LOC400551 (retired record) | 0.938 | 1.43 | 1.4 | inactive |
| RBSN | -1.31 | -0.395 | -0.539 | inactive |
| NAV2-AS5 | 0.602 | 0.426 | 0.487 | inactive |
| HOXD11 | 1.03 | 1.39 | 1.41 | inactive |
| H3C8 | 0.743 | 1.07 | 1.04 | inactive |
| CCIN | -0.311 | -0.802 | 0.341 | inactive |
| LCE2C | -0.639 | -0.995 | -0.294 | inactive |
| PRG3 | -0.896 | 1.11 | 1.32 | inactive |
| CLCN2 | 3.34 | 1.67 | 3.12 | active |
| SPANXN3 | -2.79 | -1.71 | -1.8 | inactive |
| HEBP1 | 1.16 | -1.26 | 0.84 | inactive |
| CYP2S1 | -0.508 | -0.205 | -0.238 | inactive |
| ERLEC1 | 0.704 | -0.178 | -1.5 | inactive |
| PDHX | -1.19 | -1.67 | -0.994 | inactive |
| CYP4A22 | 0.307 | 0.328 | 0.724 | inactive |
| CMTM3 | -2.11 | -0.363 | -0.717 | inactive |
| COL9A3 | -1.83 | -1.91 | -1.78 | inactive |
| GJD2 | 0.0954 | -0.365 | -0.292 | inactive |
| CHIT1 | -0.135 | -0.198 | 0.117 | inactive |
| GJD4 | 2.8 | 2.09 | 2.29 | active |

Entries above whose target name begins with L or l (3):
| gene knocked down | robust z-score, replicate 1 | robust z-score, replicate 2 | robust z-score, replicate 3 | activity call |
| --- | --- | --- | --- | --- |
| LOC400988 (retired record) | -0.228 | -0.729 | -0.088 | inactive |
| LOC400551 (retired record) | 0.938 | 1.43 | 1.4 | inactive |
| LCE2C | -0.639 | -0.995 | -0.294 | inactive |

Next entries follow:
| gene knocked down | robust z-score, replicate 1 | robust z-score, replicate 2 | robust z-score, replicate 3 | activity call |
| --- | --- | --- | --- | --- |
| RAE1 | -0.861 | -0.733 | -0.239 | inactive |
| MAFG | -1.29 | -1.24 | -1.13 | inactive |
| SLC35B3 | -1.9 | -1.04 | -0.989 | inactive |
| LOC389939 (retired record) | -0.441 | -0.458 | -0.649 | inactive |
| LINC01098 | 0.0527 | 0.265 | 0.314 | inactive |
| CSMD3 | -0.695 | -2.13 | -1.57 | inactive |
| MARS1 | 0.47 | 1.13 | 0.0208 | inactive |
| CALM1 | -0.638 | -0.987 | -0.956 | inactive |
| FAM199X | -0.595 | 0.345 | 0.423 | inactive |
| MALL | 0.335 | 1.05 | 0.932 | inactive |
| GTPBP3 | -1.07 | -1.58 | -1.45 | inactive |
| CLDN7 | 0.226 | 0.444 | 0.642 | inactive |
| CHM | -0.327 | -0.252 | -0.432 | inactive |
| PTX4 | -1.08 | -1.38 | -1.34 | inactive |
| SNX11 | -0.786 | -0.885 | -0.78 | inactive |
| MIR1-1HG | 1.49 | 0.456 | 1.27 | inactive |
| ALPG | -1.46 | -1.48 | -1.58 | inactive |
| SRP54 | -0.774 | -0.0561 | -0.616 | inactive |
| HTR2A | -0.0854 | -0.0617 | -0.185 | inactive |
| TRPM2 | 0.937 | -0.0856 | 0.428 | inactive |
| H2AC17 | 0.751 | -1.54 | -0.615 | inactive |
| ARL6IP4 | 0.411 | -0.186 | 1.35 | inactive |
| BATF3 | -1.45 | 0.00467 | -0.0583 | inactive |
| MID1IP1 | -1.57 | -1.63 | -1.63 | inactive |
| LOC440250 (retired record) | 1.25 | 0.925 | 0.813 | inactive |
| LOC344382 | -0.0394 | -0.392 | -0.101 | inactive |
| CASTOR1 | 0.355 | -0.278 | -1.6 | inactive |
| SEPTIN12 | -0.481 | 0.304 | 0.517 | inactive |
| TNNT2 | -1.76 | -2.45 | -0.585 | inactive |
| LINC01538 | -0.898 | -0.711 | -0.898 | inactive |
| CNN2P9 | 0.795 | 0.305 | -0.238 | inactive |
| TMEM255A | -0.633 | -0.595 | -0.653 | inactive |
| ETNK1 | 0.795 | 1.42 | 1.31 | inactive |
| PJA2 | 0.348 | -1.27 | -1.79 | inactive |
| COPB1 | -2.05 | -2.35 | -2.02 | active |
| ATP6V0D2 | 0.208 | 0.631 | 0.554 | inactive |
| SACK1H | -0.739 | -1.2 | -1.06 | inactive |
| LOC388823 (retired record) | 1.35 | 1.63 | 1.16 | inactive |
| REEP3 | 2.41 | 1.77 | 1.9 | inactive |
| PPP1R16A | -0.125 | -0.622 | 0.0766 | inactive |
| MAGEA12 | 1.09 | 0.435 | 0.244 | inactive |
| FOLR1 | 1.28 | 0.884 | 1.15 | inactive |
| EMILIN2 | -0.957 | -0.819 | -0.993 | inactive |
